No constants are given. Whether binding was seen depends on the method and setting. Binding can be weak; no strength is given. For some assays here: Binding seen in cells or lysates may run through a third protein. For some assays here: Where a sequence is shown, tags or fusion partners need not be part of it. Blank lines part the entries; values can stand above or below the binder they belong to.
Experiments:
[1] = target: OsPHP1 (BiFC fusion) (rice); assay: split reporter; BiFC in onion epidermal peel cells, nEYFP and cEYFP fusions under the 2XCaMV35S promoter co-transformed by particle bombardment; YFP seen by confocal microscopy 12 hours post transfection; repeated three times
cEYFP-OsPHP2 (rice) = assay: as above
[2] = target: OsPHP3 (BiFC fusion) (rice); assay: as above
OsRR5 (rice) [3] = assay: two-hybrid; S. cerevisiae AH109; bait in pGBD-C1 (GAL4 binding domain; written as target), prey in pGAD-C1 (GAL4 activation domain; written as binder); serial dilutions spotted on triple drop-out medium with 5 mM 3-AT (HIS3) and quadruple drop-out medium (ADE2), 30 °C; growth on quadruple drop-out shows strong interaction
OsRR5 (rice) [4] = assay: two-hybrid; β-galactosidase filter lift assay (LacZ reporter) of the co-transformed yeast colonies, X-gal as substrate, 30 °C in the dark
nEYFP-OsRR5 (rice) = assay: split reporter; BiFC in onion epidermal peel cells, nEYFP and cEYFP fusions under the 2XCaMV35S promoter co-transformed by particle bombardment; YFP seen by confocal microscopy 12 hours post transfection; repeated three times
OsPHP2 (rice) [5] = assay: two-hybrid; S. cerevisiae AH109; bait in pGBD-C1 (GAL4 binding domain; written as target), prey in pGAD-C1 (GAL4 activation domain; written as binder); serial dilutions spotted on triple drop-out medium with 5 mM 3-AT (HIS3) and quadruple drop-out medium (ADE2), 30 °C; growth on quadruple drop-out shows strong interaction
OsPHP3 (rice) [6] = assay: as above
OsPHP1 (rice) [7] = assay: as above
OsRR4 (rice) [8] = assay: as above
OsPHP2 (rice) [9] = assay: two-hybrid; β-galactosidase filter lift assay (LacZ reporter) of the co-transformed yeast colonies, X-gal as substrate, 30 °C in the dark
OsPHP3 (rice) [10] = assay: as above
OsPHP1 (rice) [11] = assay: as above
OsRR4 (rice) [12] = assay: as above
OsRR12 (rice) [13] = assay: two-hybrid; S. cerevisiae AH109; bait in pGBD-C1 (GAL4 binding domain; written as target), prey in pGAD-C1 (GAL4 activation domain; written as binder); serial dilutions spotted on triple drop-out medium with 5 mM 3-AT (HIS3) and quadruple drop-out medium (ADE2), 30 °C; growth on quadruple drop-out shows strong interaction
OsRR12 (rice) [14] = assay: two-hybrid; β-galactosidase filter lift assay (LacZ reporter) of the co-transformed yeast colonies, X-gal as substrate, 30 °C in the dark

B2: OsRR21 (protein, UniProt Q8H7S7 1-691)
chain: MAPVEDGGGVEFPVGMKVLVVDDDPTCLAVLKRMLLECRYDATTCSQATRALTMLRENRRGFDVIISDVHMPDMDGFRLLELVGLEMDLPVIMMSADSRTDIVMKGIKHGACDYLIKPVRMEELKNIWQHVIRKKFNENKEHEHSGSLDDTDRTRPTNNDNEYASSANDGAEGSWKSQKKKRDKDDDDGELESGDPSSTSKKPRVVWSVELHQQFVNAVNHLGIDKAVPKKILELMNVPGLTRENVASHLQKFRLYLKRIAQHHAGIANPFCPPASSGKVGSLGGLDFQALAASGQIPPQALAALQDELLGRPTNSLVLPGRDQSSLRLAAVKGNKPHGEREIAFGQPIYKCQNNAYGAFPQSSPAVGGMPSFSAWPNNKLGMADSTGTLGGMSNSQNSNIVLHELQQQPDAMLSGTLHSLDVKPSGIVMPSQSLNTFSASEGLSPNQNTLMIPAQSSGFLAAMPPSMKHEPVLATSQPSSSLLGGIDLVNQASTSQPLISAHGGGNLSGLVNRNPNVVPSQGISTFHTPNNPYLVSPNSMGMGSKQPPGVLKTENSDALNHSYGYLGGSNPPMDSGLLSSQSKNTQFGLLGQDDITGSWSPLPNVDSYGNTVGLSHPGSSSSSFQSSNVALGKLPDQGRGKNHGFVGKGTCIPSRFAVDEIESPTNNLSHSIGSSGDIMSPDIFGFSGQM
binding (OsRR5 (rice) [3]): binds weakly | binding (OsRR5 (rice) [4]): binds

B5: OsRR24 (protein, UniProt Q6H805 1-626)
chain: MTVEERQGRVGGHGVSGGGGGRDQFPVGMRVLAVDDDPTCLKILENLLLRCQYHVTTTGQAATALKLLRENKDQFDLVISDVHMPDMDGFKLLELVGLEMDLPVIMLSANGETQTVMKGITHGACDYLLKPVRLEQLRTIWQHVIRRKNCDAKNRGNDDDAGQKAQGMNNEGESIGANRNKRQSRKSRDENGDDGDDSDENSNENGDSSTQKKPRVVWSVELHRKFVAAVNQLGIEKAVPKKILDLMNVENITRENVASHLQKYRLYLKRLSTDASRQANLAAAFGGRNPAYINMNSFGNYNAYGRYRTVPTAGHTQANNILTRMNSPSAFGVHGLLHSQPIQLGHAQNNLSTSLNDLGGLNNGNMIRGAQMSTILTGPSGNSFPNISNGAPLATANRSLQPLESSNQQHLSRVHSSSADPFSTLVGESPQFPDLGRTTNTWQTAVPSNIQDRGHNDNMSQATLHMNGPKIEPVSSFTSSNQIPLLGNEMQGQVASLASNVPIAFNQDTSPFNYGSSTNSRDMLNNSHVFSNSSINTSLPNLSLDNPAVPRQTLDRGNTGIVSPMQDGRIHHQAVSNQLNYNDDLMRTTGLQRGLSGGLDDIVVDMFRPDREDDGVPYIDGDWELV
binding (OsPHP2 (rice) [5]): binds | binding (OsPHP3 (rice) [6]): binds weakly | binding (OsRR12 (rice) [13]): binds | binding (OsPHP2 (rice) [9]): binds | binding (OsPHP3 (rice) [10]): binds | binding (OsRR12 (rice) [14]): binds

B6: OsRR22 (BiFC fusion) (protein, UniProt Q5SML5 1-696)
chain: MLLGALRMEERKGLMGRERDQFPVGMRVLAVDDDPVCLKVLETLLRRCQYHVTSTNQAITALKLLRENRDMFDLVISDVHMPDMDGFKLLELVGLEMDLPVIMLSVNGETKTVMKGITHGACDYLLKPVRIEELRNIWQHVVRRKFGNRERNNLDFSKECNKPQSADTDHGPYQPTCGSSDQNGRSSRKRKELHGEDDDEGDDNDYQENDEPSAAKKPRVVWSVELHRKFVAAVNQLGIDKAVPKRILELMNVEKLTRENVASHLQKYRLYLKRLGAVASQQASIVAAFGGRDPSFLHIGAFEGLQSYQPFAPSAALPSFNPHGLLTRTSAAAAFGLQELAAPSSTIQTSTGNVTVGHCLEENQQANLAQGLTAAIGQPQLQQNWIHQEGNGLSDVFSGSSLTNTLSSTLQRVPSSSLPPQELLECKQAKVSMPPSIRIPPSSSALLERTLGVSTNLGDSSISQQGALPIDGGFSADRLPLHSSFDGAVATKLDTSLAASQREIGQQGKFSVSMLVSPSDNLALAKNAKTGASSSGSTIILPLDTARHSDYLQFGGASNSLQKMDGQKQDHIQSSNIIWSSMPSTQLPSDTQIHNTQNQRLDSGSFNHNIGAHLADQTNASASILPQMKFDTRISEEKMKQKNTYDLGSSKLQGGFNSSGCNFDGLLNSIIKVEKDDLPFMDNELGCDLFPLGACI
binding [1]: binds | binding (cEYFP-OsPHP2 (rice)): binds | binding [2]: binds

Now from value to binder:

binding [1]: binds | binding (cEYFP-OsPHP2 (rice)): binds | binding [2]: binds
B1: nEYFP-OsRR23 (protein, UniProt Q6K8X6 1-688)
chain: MRAAEERKGVVPAARRRDQFPVGMRVLAVDDDPVCLKVLETLLLRCQYHVTTTNQAAIALKMLRENRDMFDLVISDVHMPDMDGFKLLELVGLEMDLPVIMLSVNGETKTVLKGITHGACDYLLKPVRIEELRNIWQHVIRRKFSTRDRANLDFYEECNKPPNADSDHVHGHVTCGSPDQSGRPSKKRKEYCSEEEDEGEVNTQDIDDPSAPKKPRVVWSVELHRKFVAAVNQLGIDKAVPKRILELMNVEKLTRENVASHLQKYRLYLKRLSAVASQQVSIVAALGGRDPFLHMGGFEGLQGYQAFTSSAALSSFTPHGLLNSPRNNPAALGTQGVPASKSIQTMSGSHTLSHSINDANKYHLSLPGNQKGNLGQGLATSLGQTQMQQKWIHEETDDLSTILSGNGLSNGMSGTLQSVTSSPLLPQELAECTQAKIVSQPSIRTSSVSSEHIEGAVGVSSGLLESRVSQQSTIPLSGFSANGLLIHGSFNNTCANKLGGTSSSCAPARSSNDLMVARDTKGGASSFGGAMLLPPDTEQKYLNFGGGNGLKQKFDDRTADSLFDLKFVWSSVPSSQLASNIGAHHAMSQRWNNSSSNSSNIGARMIGQATSSGSTVIPQMKTDFLVSGDMAMPKNASDLSIPKLQSELSSSSCSFDGLLNSIVKVEKDDVTFSDDLGCGDFYSLGACI

binding (nEYFP-OsRR5 (rice)): binds
B3: cEYFP-OsRR21 (protein, UniProt Q8H7S7 1-691)
chain: B2 chain

binding (OsPHP2 (rice) [5]): binds | binding (OsPHP3 (rice) [6]): binds | binding (OsPHP1 (rice) [7]): binds | binding (OsRR4 (rice) [8]): binds | binding (OsPHP2 (rice) [9]): binds | binding (OsPHP3 (rice) [10]): binds | binding (OsPHP1 (rice) [11]): binds | binding (OsRR4 (rice) [12]): binds
B4: OsRR26 (protein, UniProt Q5N6V8 1-582)
chain: MDATAFPYGLRVLVVDDDPTWLKILEKMLRKCSYEVTTCGLARVALDILRERKNKFDIVISDVNMPDMDGFKLLEHIGLEMDLPVIMMSIDGETSRVMKGVQHGACDYLLKPVRMKELRNIWQHVYRKKMHEVKEIEGNDSCDDLQILRNSFEGLDEKSLFMRSDSDTMRKRKDVDKDHADQESSDGNTVKKARVVWSVDLHQKFVNAVNQIGFDKVGPKKILDLMNVPGLTRENVASHLQKYRLYLSRLQKQNEERILGAARQDFSHKGTSENLNLRSSFQEQPSNIANGYPHASQNIQTQANMLDSQLEDTKSTVPLPVPDKKRTLASDAADSQNVTSASSLGGVLSFKSMPVNQDRKPSETMILECQAWTGGIPSKQFMQYPKHNHERCDLLGDYSCLPKPDLEHPVGPSNLYAPPPLISMSCGMEGDARDFSDVKPAIMDCIKSLSPALTCTVDSVSVQLSDSVVTSIDGDLKSSGVDGLPSIKDCCLDQTNSQGSLRPSQEPSIIGSTELASLPEDLPSYPLHGVSLENIGLSSIDLLNYSDAMILSGLQSNWYDDLEFSSEMMDYPSIDECLFASS

From PMC5571105
